This is one part of the list.

For this test, the target named is T1, OsSMF1 (Oryza sativa, UniProt Q6ZLB0 1-436).
T1 sequence: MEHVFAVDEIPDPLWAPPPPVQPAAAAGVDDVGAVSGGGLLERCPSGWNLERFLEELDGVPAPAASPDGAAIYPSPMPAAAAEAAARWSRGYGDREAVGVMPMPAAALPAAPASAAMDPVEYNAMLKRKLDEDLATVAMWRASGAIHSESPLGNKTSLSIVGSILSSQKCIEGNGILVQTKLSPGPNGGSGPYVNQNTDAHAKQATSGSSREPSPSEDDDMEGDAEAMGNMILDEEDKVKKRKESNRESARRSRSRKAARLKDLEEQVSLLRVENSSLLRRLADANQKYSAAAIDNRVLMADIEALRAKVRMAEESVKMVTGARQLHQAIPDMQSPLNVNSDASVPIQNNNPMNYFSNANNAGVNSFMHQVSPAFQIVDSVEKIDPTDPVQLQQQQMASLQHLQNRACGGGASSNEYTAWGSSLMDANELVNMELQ
As to the kind of experiment: protein-binding microarray (RPBM); PBS, 2% BSA, 51.3 ng/ul salmon testes DNA, 50 uM zinc acetate, 200 nM TF, 25 C, 1 h; high values mean tight binding. Particulars: protein: recombinant; tags: N-terminal polyhistidine and DsRed monomer fusion (pET32a); chain copies: 2; label: CyDye5-dUTP incorporated in the synthesized complementary strand; 3' TTTTT single-stranded linker to array surface; dsDNA, one strand shown. The procedure, abridged:
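The binding signal for each feature is its fluorescence intensity in arbitrary units. An Axon 4000B scanner was used to read a custom Agilent array that had been made double-stranded with Cy5-dUTP primer extension, blocked with 2% BSA, incubated at 25 °C for 1 h with 200 nM protein in PBS, 2% BSA, salmon testes DNA and 50 µM zinc acetate, and washed. The protein was an N-terminal polyhistidine–DsRed transcription factor fusion from E. coli BL21-CodonPlus, purified on Ni–NTA.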
Turning to “CCGTGCACGTGACTAGTGTACGTCAGCCTCACCAAGAACGCGGAGTCACCTAGTGCAG”, the binding signal is 5470 fluorescence intensity (a.u.).
The value for “TGATGCCGGATTGCCAATGGGGTTGGGTTGGTCTGAATGACGGAGTCACCTAGTGCAG” was 3460 fluorescence intensity (a.u.); that for “CCCACATGTCGGTCCAATTCTCCCTCCAGCCACTCCCGACCGGAGTCACCTAGTGCAG” was 3220 fluorescence intensity (a.u.).
The value for “AAAATCTTCCCAACAGTAGTGTGTCATCTCATCTCCCTCTCGGAGTCACCTAGTGCAG” was 4800 fluorescence intensity (a.u.).
The value for “GCGCCGCCACAGTTAGCCTATGGAGTCCCCGTGTGCGTGTCGGAGTCACCTAGTGCAG” was 5460 fluorescence intensity (a.u.); that for “TCTCTGCTTCTCGTTGTTCTTGGTTGGTTGTTGTTGTAGACGGAGTCACCTAGTGCAG” was 3440 fluorescence intensity (a.u.).
As to “GCCCCTCATCTATAAATATATGGATTAAAATTTTAGGGATCGGAGTCACCTAGTGCAG”, the binding signal is 23600 fluorescence intensity (a.u.).
The value for “TGTACCATTCCATCCATGTTAGAGAATGAGCTCTGACATGCGGAGTCACCTAGTGCAG” was 3540 fluorescence intensity (a.u.).
The value for “CTTATGAAATTTACTCCAAGTCACCAAGTGTAGCCCCACACGGAGTCACCTAGTGCAG” was 5240 fluorescence intensity (a.u.); that for “CCTTCCTACGTGGCCTCCGGCCCCACCTCCCGCCCGTTGCCGGAGTCACCTAGTGCAG” was 13400 fluorescence intensity (a.u.).
The value for “TGATGAAACACACGTGCATGCACCGGTCACTTTGATCGAGCGGAGTCACCTAGTGCAG” was 3900 fluorescence intensity (a.u.).
Regarding “GCCAACGAGGTCGCGTTCGACAAGGTGAAGGACGCCGGCGCGGAGTCACCTAGTGCAG”, the binding signal is 39600 fluorescence intensity (a.u.).
The value for “AAGAGAAGAGAACGGCGGTAGAGAGGAGGGAGGTGGCGGCCGGAGTCACCTAGTGCAG” was 3450 fluorescence intensity (a.u.); that for “GCATCAAGTGAACAGGCCCTTTGTGTTGTACAGATCCTTCCGGAGTCACCTAGTGCAG” was 12900 fluorescence intensity (a.u.); that for “TTGTGGATTCTCTGATGTAAACGAACAAACTATCTGTTTCCGGAGTCACCTAGTGCAG” was 3190 fluorescence intensity (a.u.).
The value for “TTTCGGTTCATGTGCCACGATTGATCTACTCGATTGATATCGGAGTCACCTAGTGCAG” was 3180 fluorescence intensity (a.u.).
The value for “TTTTCTACTGTTAAATGGCGCTTAGAGATGATGAGGCAAACGGAGTCACCTAGTGCAG” was 3160 fluorescence intensity (a.u.); that for “TTATGCAGCGCACCAGCGTCAATATGTGCAGTGTGCGACGCGGAGTCACCTAGTGCAG” was 3440 fluorescence intensity (a.u.); that for “GAGGAGGGGATTGGGTGCTTGGAAAGCATGGCGCGGCAGTCGGAGTCACCTAGTGCAG” was 4440 fluorescence intensity (a.u.).
For the sequence “ATTCAGTCTTACCCCTATTAAATGTGCATGACACACCAGTCGGAGTCACCTAGTGCAG”, the binding signal is 4940 fluorescence intensity (a.u.).
Consider “GAGGCCGGCGAGAAGGGTGCTCGCCACGCTGTCCCCATTTCGGAGTCACCTAGTGCAG”, for which the binding signal was 3810 fluorescence intensity (a.u.).
The value for “GCGGCTGCGACCTCCCGCTGCCGTGTCGGTCGCTCGGCCTCGGAGTCACCTAGTGCAG” was 4020 fluorescence intensity (a.u.); that for “ACTTGGACCCGCTCTCTCATCTCTTTTCTCTCCATCCCCGCGGAGTCACCTAGTGCAG” was 5820 fluorescence intensity (a.u.).
As to “GGCCCAATGACACAAACGAAACCTCCTGAGCTCTGACTTTCGGAGTCACCTAGTGCAG”, the binding signal is 38200 fluorescence intensity (a.u.).
The value for “CATTAAATATTTGGACACATCACACATGTATGGAGCGTTACGGAGTCACCTAGTGCAG” was 4010 fluorescence intensity (a.u.); that for “TCAAGTAAATGACATCACTAAACATGATATCATGCTCGCTCGGAGTCACCTAGTGCAG” was 5070 fluorescence intensity (a.u.).
The value for “CCCCTATTTTGTTACCTCATTATTCTCGTATTCCCCTTTTCGGAGTCACCTAGTGCAG” was 3280 fluorescence intensity (a.u.); that for “CGGGGCAGTGACCACCACCACCACATCACCCACCGCATTCCGGAGTCACCTAGTGCAG” was 6350 fluorescence intensity (a.u.); that for “ATGCACACTGTTCTCTGCCACGCGGCGGCGGTGTGGGACCCGGAGTCACCTAGTGCAG” was 11600 fluorescence intensity (a.u.).
The value for “TATAAACAATTAACCTATATATCTAAGTGCTGATTTAACCCGGAGTCACCTAGTGCAG” was 3190 fluorescence intensity (a.u.); that for “CCAACCCAGAGGCCATCAACGCAAGAACACATTCTCACCTCGGAGTCACCTAGTGCAG” was 31700 fluorescence intensity (a.u.).
With “TTATCTTATCTACGTACGACTTTGGTGATGTGATGGTATGCGGAGTCACCTAGTGCAG”, the binding signal is 3190 fluorescence intensity (a.u.).
The value for “TAGGATTCAGCTCCTTCCTATTAGGGGTTCACCCGCGAGTCGGAGTCACCTAGTGCAG” was 13800 fluorescence intensity (a.u.).
As to “TAGAATTGAGAGGGAGGGAGTATAGGGCCTGTTTAGTTCGCGGAGTCACCTAGTGCAG”, the binding signal is 3300 fluorescence intensity (a.u.).
The value for “GAGAAGGACGCACACCTCACCATCGCGGCCCCTGCCACGTCGGAGTCACCTAGTGCAG” was 9310 fluorescence intensity (a.u.); that for “TGGTGGTGGGTATGGCGTTAGATCCATCCACGCCTTCGTGCGGAGTCACCTAGTGCAG” was 3760 fluorescence intensity (a.u.).
The value for “TCCCGCCACGCCACCCCACTGTTTCATTCCCTCGTGGCGCCGGAGTCACCTAGTGCAG” was 8150 fluorescence intensity (a.u.).
The value for “CACCGCTCCTCCTCTGTTCCTTCCCATCGTCAGCATCGCCCGGAGTCACCTAGTGCAG” was 6030 fluorescence intensity (a.u.).
As for “TGTGACAGAGGAAGTACACGGTATTATGGCATGTGTACCGCGGAGTCACCTAGTGCAG”, the binding signal was 3390 fluorescence intensity (a.u.).
The value for “CCCTCCGCCACGCCGCTCTCGACACCTCCTCCGTCGGCCTCGGAGTCACCTAGTGCAG” was 3460 fluorescence intensity (a.u.); that for “CACGCCTCCTCCGATGAGTCACTCTACGATGATTGATGCGCGGAGTCACCTAGTGCAG” was 6220 fluorescence intensity (a.u.).
The value for “AAATTCAGAGACTGGGCAGTTTGCACGCGTCATCATCCATCGGAGTCACCTAGTGCAG” was 10400 fluorescence intensity (a.u.).

These data come from publication PMC7819943, “Rice protein-binding microarrays: a tool to detect cis-acting elements near promoter regions in rice”.
